## Percent effect of library compounds

Protein sequences, listed by entry. Tags and fused reporters are not part of them. Residues count along the entry.
UniProt P9WPC5, whole entry: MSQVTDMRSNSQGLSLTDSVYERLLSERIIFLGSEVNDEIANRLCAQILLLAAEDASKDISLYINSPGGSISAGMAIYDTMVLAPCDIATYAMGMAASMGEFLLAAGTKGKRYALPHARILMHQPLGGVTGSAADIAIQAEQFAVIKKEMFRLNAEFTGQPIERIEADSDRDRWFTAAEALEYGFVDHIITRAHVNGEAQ
UniProt P9WPC3, whole entry partner: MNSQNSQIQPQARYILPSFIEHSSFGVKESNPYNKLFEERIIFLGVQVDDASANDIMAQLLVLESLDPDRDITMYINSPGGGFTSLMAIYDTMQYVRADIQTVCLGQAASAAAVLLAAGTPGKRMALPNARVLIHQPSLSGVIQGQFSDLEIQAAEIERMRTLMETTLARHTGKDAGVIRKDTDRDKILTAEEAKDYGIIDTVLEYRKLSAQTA
UniProt Q4DA54, 1-478: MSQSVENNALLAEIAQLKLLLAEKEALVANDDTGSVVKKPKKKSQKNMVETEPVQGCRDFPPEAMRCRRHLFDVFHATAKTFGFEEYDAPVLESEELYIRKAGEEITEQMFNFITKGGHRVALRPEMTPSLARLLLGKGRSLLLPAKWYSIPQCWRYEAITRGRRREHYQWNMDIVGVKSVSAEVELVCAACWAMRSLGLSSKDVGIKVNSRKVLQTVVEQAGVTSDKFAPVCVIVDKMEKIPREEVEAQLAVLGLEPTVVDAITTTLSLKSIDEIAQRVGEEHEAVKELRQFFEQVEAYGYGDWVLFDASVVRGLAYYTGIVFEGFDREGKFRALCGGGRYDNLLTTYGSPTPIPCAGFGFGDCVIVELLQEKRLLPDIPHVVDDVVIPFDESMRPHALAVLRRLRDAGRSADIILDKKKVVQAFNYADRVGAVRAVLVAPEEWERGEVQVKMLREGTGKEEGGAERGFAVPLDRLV
UniProt Q8IDJ8, 1-583: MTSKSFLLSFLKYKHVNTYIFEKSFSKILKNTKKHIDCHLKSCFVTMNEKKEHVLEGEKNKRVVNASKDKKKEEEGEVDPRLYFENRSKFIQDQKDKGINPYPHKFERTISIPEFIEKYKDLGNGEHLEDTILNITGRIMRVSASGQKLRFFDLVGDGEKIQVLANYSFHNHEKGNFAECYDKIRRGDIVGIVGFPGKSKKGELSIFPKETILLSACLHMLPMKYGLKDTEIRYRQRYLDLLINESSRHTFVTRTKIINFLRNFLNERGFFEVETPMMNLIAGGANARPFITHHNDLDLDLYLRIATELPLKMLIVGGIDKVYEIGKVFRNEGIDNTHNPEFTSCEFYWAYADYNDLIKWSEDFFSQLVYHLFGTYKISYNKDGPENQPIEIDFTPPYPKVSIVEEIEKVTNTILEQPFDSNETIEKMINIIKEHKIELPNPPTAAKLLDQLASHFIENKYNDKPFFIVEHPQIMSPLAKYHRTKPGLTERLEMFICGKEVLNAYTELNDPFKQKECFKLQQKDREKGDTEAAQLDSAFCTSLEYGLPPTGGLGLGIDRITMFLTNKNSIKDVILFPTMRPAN
UniProt P9WNZ1, whole entry: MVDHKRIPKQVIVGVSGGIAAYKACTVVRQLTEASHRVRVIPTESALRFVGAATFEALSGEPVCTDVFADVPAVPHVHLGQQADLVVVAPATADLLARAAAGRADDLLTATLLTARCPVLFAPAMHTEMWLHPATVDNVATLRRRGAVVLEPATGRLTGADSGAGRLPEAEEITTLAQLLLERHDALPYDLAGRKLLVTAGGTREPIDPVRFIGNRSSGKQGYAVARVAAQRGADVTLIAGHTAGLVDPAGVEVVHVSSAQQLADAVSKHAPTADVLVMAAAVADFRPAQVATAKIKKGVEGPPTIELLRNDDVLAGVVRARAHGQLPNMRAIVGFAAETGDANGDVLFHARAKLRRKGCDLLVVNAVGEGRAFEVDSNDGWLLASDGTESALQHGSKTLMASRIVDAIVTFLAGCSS
UniProt I6X8D2, whole entry: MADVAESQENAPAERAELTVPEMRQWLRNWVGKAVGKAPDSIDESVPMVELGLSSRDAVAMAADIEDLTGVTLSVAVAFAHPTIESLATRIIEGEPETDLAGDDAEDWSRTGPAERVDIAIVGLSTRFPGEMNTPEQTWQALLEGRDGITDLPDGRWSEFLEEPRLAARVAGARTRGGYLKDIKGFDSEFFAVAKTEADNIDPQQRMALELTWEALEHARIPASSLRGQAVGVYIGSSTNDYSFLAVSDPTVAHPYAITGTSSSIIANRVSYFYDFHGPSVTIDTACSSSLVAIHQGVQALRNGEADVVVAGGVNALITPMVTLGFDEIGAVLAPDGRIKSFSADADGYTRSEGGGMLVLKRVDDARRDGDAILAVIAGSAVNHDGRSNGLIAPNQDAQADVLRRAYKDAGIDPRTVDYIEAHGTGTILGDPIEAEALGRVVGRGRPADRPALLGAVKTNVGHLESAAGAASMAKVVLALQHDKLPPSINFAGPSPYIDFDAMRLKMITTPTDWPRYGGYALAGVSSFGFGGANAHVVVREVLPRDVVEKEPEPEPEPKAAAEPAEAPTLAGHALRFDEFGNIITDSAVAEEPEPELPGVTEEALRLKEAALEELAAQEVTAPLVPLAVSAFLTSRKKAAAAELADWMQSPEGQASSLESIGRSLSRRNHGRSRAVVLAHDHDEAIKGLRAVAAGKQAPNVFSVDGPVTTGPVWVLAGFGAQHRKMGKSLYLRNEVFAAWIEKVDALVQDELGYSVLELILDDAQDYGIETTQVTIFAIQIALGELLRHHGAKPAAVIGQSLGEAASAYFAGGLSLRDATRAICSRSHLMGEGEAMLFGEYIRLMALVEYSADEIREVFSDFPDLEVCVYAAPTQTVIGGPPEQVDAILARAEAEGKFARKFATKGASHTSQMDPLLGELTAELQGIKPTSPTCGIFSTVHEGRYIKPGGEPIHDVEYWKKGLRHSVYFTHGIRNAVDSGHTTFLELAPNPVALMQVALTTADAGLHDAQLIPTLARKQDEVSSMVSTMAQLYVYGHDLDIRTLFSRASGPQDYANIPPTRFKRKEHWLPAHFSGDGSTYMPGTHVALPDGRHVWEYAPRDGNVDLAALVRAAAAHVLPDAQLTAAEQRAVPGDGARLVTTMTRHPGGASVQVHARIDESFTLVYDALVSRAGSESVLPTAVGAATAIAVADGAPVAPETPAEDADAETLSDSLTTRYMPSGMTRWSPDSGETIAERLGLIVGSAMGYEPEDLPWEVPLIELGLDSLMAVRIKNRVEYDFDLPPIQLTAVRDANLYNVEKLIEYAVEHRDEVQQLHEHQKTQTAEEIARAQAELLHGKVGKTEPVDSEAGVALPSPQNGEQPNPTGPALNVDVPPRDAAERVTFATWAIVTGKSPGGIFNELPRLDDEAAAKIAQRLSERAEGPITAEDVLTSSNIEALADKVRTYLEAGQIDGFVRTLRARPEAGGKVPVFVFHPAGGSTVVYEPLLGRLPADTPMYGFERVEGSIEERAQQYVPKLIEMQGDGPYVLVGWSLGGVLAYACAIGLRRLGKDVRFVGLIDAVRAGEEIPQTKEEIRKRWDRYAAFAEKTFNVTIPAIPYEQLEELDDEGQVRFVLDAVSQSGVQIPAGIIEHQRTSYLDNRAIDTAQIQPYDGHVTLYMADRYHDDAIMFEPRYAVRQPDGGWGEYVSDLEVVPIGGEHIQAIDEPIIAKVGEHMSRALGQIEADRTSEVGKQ

From ChEMBL document CHEMBL3988442, “University of Dundee, Small-Polar-MMV Screening Library” (2021).

Values are the deposited “Percent Effect”, in %. The controls that fix the scale are not given in the record; negative values are as filed. The compounds are a random part of those screened. Two or more numbers in one place are separate tests of the same structure; such repeats can differ widely. A dash means the value is not listed here; it may have been measured.

A: 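ClpP1P2, Mycobacterium tuberculosis (UniProt P9WPC5 and UniProt P9WPC3). Protease assay of ClpP1P2, read by the AMC dye that it sets free. Compounds at 50 µM. Direction is inferred from only a few compounds that gave an IC50; most scored high, so higher reads as stronger inhibition. Most other retested compounds had strongly negative values. Size under these conditions: about 69,000 compounds, about 10 of them at 50% or above in at least one test.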
B: 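Enzyme assay of histidyl-tRNA synthetase; the read-out is not stated. Target: Histidine-tRNA ligase, Trypanosoma cruzi CL Brener (UniProt Q4DA54). Compounds at 30 µM. Higher reads as stronger inhibition (inferred: compounds with an IC50 in retests scored well above the rest). Size under these conditions: about 69,000 compounds, about 31 of them at 50% or above in at least one test.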
C: 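Enzyme assay of the cytosolic lysyl-tRNA synthetase in 384-well plates, read by luminescence. Target: Lysine-tRNA ligase, Plasmodium falciparum 3D7 (UniProt Q8IDJ8). Concentration: 30 µM. Higher reads as stronger inhibition, judged from the few compounds that gave an IC50. About 69,000 compounds were tested under these conditions; 0.071% (about 49) showed 50% or more at least once.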
D: 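Enzyme assay of CoaBC with a phosphate dye (Biomol Green) read at 650 nm. Target: Coenzyme A biosynthesis protein CoaBC, Mycobacterium tuberculosis (UniProt P9WNZ1). Compounds at 30 µM. Direction is inferred from only a few compounds that gave an IC50; most scored high, so higher reads as stronger inhibition. Most strong results did not repeat in a second test. About 67,000 compounds were tested under these conditions; 0.06% (about 40) showed 50% or more at least once.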
E: 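Cell assay of Leishmania donovani living inside macrophages; the read-out is not stated. Concentration: 30 µM. Direction is inferred from retests: higher values go with stronger inhibition. Of about 69,000 compounds tested this way, about 1,000 (1.5%) reached 50% or more in at least one test.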
F: 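Enzyme assay of the thioesterase domain of polyketide synthase 13; the read-out is not stated. Target: Polyketide synthase Pks13, Mycobacterium tuberculosis (UniProt I6X8D2). Compounds at 30 µM. The record gives no direction; the compounds picked for IC50 retests had high values, so higher reads as stronger inhibition. Of about 67,000 compounds tested this way, about 300 (0.46%) reached 50% or more in at least one test.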

SMILES	A	B	C	D	E	F
COC(=O)c1cc(C(=O)N2CCCCCC2)n(-c2ccccc2)n1	9.441%	3.422%	-4.62%	-1.064%	-19.13%	-7.449%
CCS(=O)(=O)Nc1ccc2[nH]c(C3CCC3)nc2c1	-3.175%	1.19%	0.09557%	-5.283%	7.447%	12.54%
[H][C@@]12C[C@H](NC(=O)Cc3nc4nc(C)cc(C)n4n3)CN1CCN(C)C2	-	-	-	-	18.4%	-
CC(C)Cc1noc(CN(C)C[C@]2(O)CCCN3CCCC[C@@H]32)n1	-23.22%	-0.9662%	2.691%	3.602%	-	7.549%
Fc1ccc(CNCc2cc(Br)c3c(c2)OCO3)cc1	6.862%	-2.674%	1.323%	-2.174%	6.888%	-18.1%
O=C(O)C1(n2ccc(-c3ccco3)n2)CCN(Cc2ccsc2)CC1	-5.671%	3.015%	2.077%	9.532%	-17.17%	2.24%
CC(C)c1noc(CCC(=O)NC(C)c2nnc3n2CCC3)n1 (stereo not given)	1.913%	6.977%	1.235%	0%	-9.394%	1.767%
Cn1nc(C(=O)N2CCSCC2)cc1NC(=O)c1ccco1	-2.608%	6.931%	1.412%	0.4854%	26.29%	-8.728%
Cc1ncsc1CCN(C)C(=O)C(c1cccnc1)N1CCOCC1 (stereo not given)	2.089%	3.061%	5.523%	-2.122%	22.43%	-4.815%
CC1CN(C)c2ccccc2CN1C(=O)c1cscn1 (stereo not given)	-3.775%	6.186%	5.242%	-5.623%	27.69%	-
O=C(O)C(F)(F)F.[H][C@@]12CN(c3ccc(C)nn3)C[C@H](C(=O)NCC3CC3)[C@]1([H])CCO2	-	-	-	-	30.22%	-
CCc1n[nH]c(C2CN(C(=O)c3ccnc(N(C)C)c3)CCO2)n1 (stereo not given)	-27.9%	0.8746%	-0.8128%	3.655%	-15.07%	-28.06%
FC(F)(F)c1n[nH]c2c1CN(Cc1cn3ccccc3n1)CC2	-1.814%	5.882%	4.845%	5.242%	4.893%	-17.49%
Cn1ccnc1-c1nc(NC2CCCC2)ncc1-c1cccc(F)c1	-33.6%	2.682%	-0.04906%	0.2427%	-19.26%	-2.639%
CC(=O)N1CCN(c2cc(-n3cnc(C)c3C)nc(C)n2)CC1	-14.94%	7.143%	-0.5627%	2.061%	27.38%	0.7401%
COc1ccc(C(=O)Nc2c(C)nc3cccc(C)n3c2=O)cc1	-14.97%	3.659%	1.618%	3.797%	1.972% & 19.88%	10.84%
COc1ncccc1CNCc1c(C)nn(C)c1N1CCOCC1	-25.05%	3.79%	-1.666%	4.7%	11.62%	-15.27%
CCNC(=O)N(C)C(c1cccnc1)C(C)C (stereo not given)	9.05%	5.556%	0.9162%	-0.8403%	12.31%	-18.48%
O=C1CC(c2ccncc2)c2c(c(C(=O)O)cn2-c2ccc(F)cc2)N1 (stereo not given)	4.992%	-2.732%	7.988%	-5.249%	-25.97%	-68.11%
Cc1ccc2c(n1)N(CC1CC1)CCN(C(=O)NC1CC1)C2.O=C(O)C(F)(F)F	-	-	-	-	2.653%	-
Cc1ccc(CN(CCCN2CCOCC2)Cc2cnn(C)c2)o1	-0.7215%	3.03%	4.684%	-9.371%	-	2.386%
CCOc1cccc(CN2CCCn3nc(CNS(C)(=O)=O)cc3C2)c1	-4.63%	2.041%	5.259%	9.127%	-18.38%	7.97%
COCc1noc(-c2ccc(N(C)Cc3ncccc3C)nc2)n1	-8.585%	1.508%	-2.022%	-1.809%	-51.19%	5.811%
CN(Cc1cccc(C(N)=O)c1)Cc1nc2c(cnn2C)c(=O)[nH]1	-12.15%	2.89%	2.381%	1.434%	-9.575%	-8.101%
Cc1nc(N2CCN(C(=O)c3ccccn3)CC2)c2c(n1)c(C)nn2C	-9.089%	4.348%	-0.1448%	-2.771%	22.88%	-10.31%
NC[C@H]1CC[C@H](c2c(C(N)=O)sc3ccccc32)CC1	-8.329%	10%	2.296%	-1.663%	-	4.819%
COc1ccccc1C1(CNc2cn[nH]c(=O)c2Cl)CCOCC1	-1.967%	-1.053%	1.082%	-9.562%	13.88%	-15.8%
CCC[C@H]1CN(S(=O)(=O)c2c(C)noc2C)C[C@@H]1N	-1.339%	5.732%	11.35%	-	13.64%	-34.83%
Cc1nc(CN2CCOCC3(CCN(c4ncccn4)C3)C2)cs1.O=C(O)C(F)(F)F.O=C(O)C(F)(F)F (stereo not given)	-	-	-	-	21.98%	-
O=C(NCc1nnnn1-c1ccccc1)c1ccc(C2CCCO2)s1 (stereo not given)	-5.466%	12.06%	0.2663%	8.738%	9.693%	-11.63%
O=c1ccn(Cc2nc(-c3ccccc3F)cs2)c(=O)[nH]1	-5.439%	5.882%	7.7%	-1.463%	23.5%	-21.67%
O=C(O)C(F)(F)F.O=C(O)C(F)(F)F.O=C(O)C(F)(F)F.[H][C@@]12COC[C@H](N3CCN(C)CC3)[C@]1([H])CN(Cc1ccc(OC)cc1)C2	-	-	-	-	14.12%	-
CN(C)C[C@]12COC[C@H]1CN(Cc1ccc3c(c1)OCO3)C2	8.368%	9.548%	2.714%	-1.361%	-	-15.03%
CN(C)CC(=O)N1CC2(CCN(S(=O)(=O)c3ccccc3)C2)C1	-9.664%	0.9709%	4.507%	-1.931%	6.93%	-13.27%
Cc1noc(C(C)C)c1C(=O)NS(=O)(=O)c1ccc2c(c1)OCCCO2	-0.7428%	-2.174%	-0.7777%	3.374%	13.91%	-38.71%
CCOCCCNC(=O)c1cn(CC)nc1C	12.46%	1.639%	6.589%	2.557%	18.21%	-24.48%
COCC1CN(c2ncc(F)cn2)Cc2cnn(C)c21.O=C(O)C(F)(F)F.O=C(O)C(F)(F)F (stereo not given)	-	-	-	-	22.2%	-
Cc1ccc(Cl)cc1N1CCC(CNC(=O)CC(F)(F)F)C1 (stereo not given)	-1.366%	2.29%	-1.36%	0.5181%	1.24%	-2.501%
CC(=O)N1CCN(c2ccccc2CNc2ccc3[nH]ncc3c2)CC1	-10.44%	-9.474%	5.545%	3.586%	31.72%	-19.65%
CC(C)CN1C(=O)CC(N2CCN(c3ccc(F)cc3)CC2)C1=O (stereo not given)	12.39%	-2.484%	1.204%	-0.3797%	-25.93%	6.164%
CCn1c(CN2CCOC(Cn3cccn3)C2)nc2c(F)cccc21 (stereo not given)	-2.746%	6.806%	8.234%	2.355%	-2.825%	-24.11%
[H][C@@]12C[C@@H](O)CN1C[C@@H](Cc1ccccc1)N(Cc1ccccc1)C2	-	-	-	-	-40.11%	-
Cc1cccc(CN2CC[C@@H]3[C@@H]2CCN3C(=O)Cc2ccsc2)n1	0.8765%	0.5025%	2.045%	6.312%	-	-7.64%
O=C(O)C(F)(F)F.[H][C@@]12CN(C(=O)Cc3cccs3)C[C@]1([H])OCCN2CC1CCCO1 (stereo not given in full)	-	-	-	-	10.83%	-
NC(=O)c1ccc(C2CCCN2C(=O)CCn2nnc3ccccc32)s1 (stereo not given)	-18.18%	1.754%	2.302%	2.096%	21.09%	-0.6148%
CCOc1ccc(C(=O)N2CCN(c3nccn3C)CC2)cc1.Cl	-	-	-	-	-4.917%	-
CCN(CC)CCn1cc(NC(=O)Nc2ccccc2OC)cn1	-0.54%	2.941%	5.371%	-2.552%	21.05%	-32.32%

Some entries from above, unchanged:

| SMILES | A | B | C | D | E | F |
|---|---|---|---|---|---|---|
| `FC(F)(F)c1n[nH]c2c1CN(Cc1cn3ccccc3n1)CC2` | -1.814% | 5.882% | 4.845% | 5.242% | 4.893% | -17.49% |
| `COCC1CN(c2ncc(F)cn2)Cc2cnn(C)c21.O=C(O)C(F)(F)F.O=C(O)C(F)(F)F` (stereo not given) | - | - | - | - | 22.2% | - |
| `CC(=O)N1CCN(c2ccccc2CNc2ccc3[nH]ncc3c2)CC1` | -10.44% | -9.474% | 5.545% | 3.586% | 31.72% | -19.65% |
| `O=C1CC(c2ccncc2)c2c(c(C(=O)O)cn2-c2ccc(F)cc2)N1` (stereo not given) | 4.992% | -2.732% | 7.988% | -5.249% | -25.97% | -68.11% |
| `CCN(CC)CCn1cc(NC(=O)Nc2ccccc2OC)cn1` | -0.54% | 2.941% | 5.371% | -2.552% | 21.05% | -32.32% |